Test results published in PubChem BioAssay AID2685 (National Center for Advancing Translational Sciences (NCATS), 2010).
This is one part of the list. Shown are side measurements of this screen, not its main read-out; they come without a call. The list favours compounds with an active or inconclusive main result. The note in brackets gives the kind of curve behind each potency; many fits are weak.

Assay: qHTS Assay for Lipid Storage Modulators in Drosophila S3 Cells;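 as to cell number change: cells counted by Cell Tracker Red CMTPX staining in the red channel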
Settings: BODIPY lipid droplet fluorescence, 18-24 h; for cell number change: measured here: cell count max response, cells fed with added oleic acid
Procedure, shortened: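 Drosophila S3 cells loaded with oleic acid (400 uM, as added) and compounds at several concentrations; lipid droplets imaged by 488-nm laser-scanning cytometry, 500–530 nm intensity and object ratio to cell channel. Percent activity normalized to 20 uM Triacsin C.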

[1] = measured here: lipid fluorescence (Fed channel) AC50, cells fed with added oleic acid
[2] = measured here: cell number channel AC50, cells fed with added oleic acid

SMILES | cell number change | AC50 [1] | AC50 [2]
O=C(Cn1ccc([N+](=O)[O-])n1)N1CCCCC1 | -36.5% | – | –
CCc1nnc(NC(=O)c2ccc(S(=O)(=O)N3CCCC(C)C3)cc2)o1 (configuration not stated) | 1.51% | 2310 nM [falling, partial curve, poor fit] | –
COC(=O)C1(Cc2cc(-c3ccc(OC)cc3OC)no2)CCN(C(=O)OC(C)(C)C)CC1 | 11.3% | – | –
CCOc1ccccc1C(=O)NCC(=O)Nc1ncccc1C | 43.3% | 1300 nM [rising, full curve] | 1030 nM [rising, full curve]
C=C1CCN([C@H](C(=O)NCc2ccc(Cl)cc2)C(C)C)S(=O)(=O)c2ccccc21 | 12.4% | 25900 nM [rising, single point] | –
CC(C)(C)c1nnc(N/N=C/c2cc(Br)ccc2O)n(N)c1=O | -34.8% | 16400 nM [falling, single point] | 18400 nM [falling, single point]
CC1COc2ccccc2N1S(=O)(=O)c1ccc(Cl)cc1 (configuration not stated) | -12.5% | 14600 nM [rising, single point] | –
Cc1c(Cl)cccc1NC(=S)NC1CC1 | -13.9% | 820 nM [falling, full curve] | –
CCCCN(C(=O)c1c(C)noc1C)c1c(N)n(CCCC)c(=O)[nH]c1=O | 19% | – | –
O=C(Cc1ccc([N+](=O)[O-])cc1)NCc1cccnc1 | 4.53% | – | –
C=CCNC(=O)c1cc2c(=O)c3ccccc3oc2nc1C | -41% | 18400 nM [falling, partial curve] | 29100 nM [falling, single point]
CCC(=O)Nc1ccc(NC(=O)c2cc3ccccc3o2)cc1 | -25.8% | – | –
CC(c1ccccc1)C(NC(=O)OCC1c2ccccc2-c2ccccc21)C(=O)O (configuration not stated) | 33.9% | 29100 nM [rising, single point] | 461 nM [rising, partial curve]
CCc1ccc(OCC2c3cc(OC)c(OC)cc3CCN2C(C)=O)cc1 (configuration not stated) | -15.9% | 291 nM [falling, partial curve, poor fit] | –
Cc1ccnc(NC(=O)CCC(=O)N(CC(=O)NC2CCCCC2)c2ccc3c(c2)OCO3)c1 | -3.17% | – | –
COCCCNC(=O)c1cn(C)c(=O)c2cc(OC)c(OC)cc12 | 22% | 29100 nM [falling, single point] | –
COc1ccc(-c2cc(C(F)F)n3ncc(C(=O)N4CCCc5ccccc54)c3n2)cc1 | -24.3% | 146 nM [falling, full curve, poor fit] | –
O=C1C=C(N2CCCCCC2)C(=O)N1c1ccc(Cl)cc1 | 23% | 13 nM [rising, full curve, poor fit] | –
CC1CCN(S(=O)(=O)c2ccc(N=NC3=C(O)CC(C)(C)CC3=O)cc2)CC1 | -3.21% | 6510 nM [rising, single point] | –
CCCn1c(SCC(=O)O)nc2ccccc21 | 126% | 259 nM [falling, partial curve, poor fit] | 18400 nM [rising, single point]

SMILES | cell number change | AC50 [1] | AC50 [2]
CCOC(=O)N1CCC(=NNc2ccc(S(N)(=O)=O)cc2[N+](=O)[O-])CC1 | -31.4% | 2060 nM [falling, partial curve] | 10300 nM [falling, partial curve, poor fit]
COC(=O)c1ccc(NC(=O)C(C)Oc2ccccc2)cc1 (configuration not stated) | 42.8% | 580 nM [falling, single point] | –
Clc1ccc(CCNc2nc3ccccc3n3nnnc23)cc1 | 4.88% | 920 nM [falling, full curve, poor fit] | –
O=C(CSc1nnc(Nc2ccccc2F)s1)NC1CC1 | 8.78% | 116 nM [falling, full curve, poor fit] | –
CCCOc1ccc(-c2csc(NC(=O)CN3C(=O)CCC3=O)n2)cc1 | -24.5% | 2060 nM [falling, full curve] | –
NS(=O)(=O)c1ccc(CNC(=S)NCc2ccc(Cl)cc2)cc1 | -20.8% | 164 nM [falling, full curve, poor fit] | –
Cc1c(OCc2ccc(C(=O)O)o2)ccc2c3c(c(=O)oc12)CCC3 | 1.24% | 6510 nM [rising, single point] | –
Cc1ccc(S(=O)(=O)N(C)C)cc1NC(=O)CN1C(=O)NC(Cc2c[nH]c3ccccc23)C1=O (configuration not stated) | -44.9% | – | 29100 nM [falling, single point]
O=C(COC(=O)C1CCN(S(=O)(=O)c2cccc3cccnc23)CC1)c1ccccc1 | -11.7% | 2310 nM [falling, partial curve] | 3260 nM [rising, single point]
NC(=O)c1ccsc1NC(=O)COC(=O)CNC(=O)c1ccc(F)cc1 | 16.8% | 58 nM [rising, full curve, poor fit] | 29.1 nM [rising, full curve, poor fit]
CCOC(=O)c1sc(NC(=O)CSc2nc(C)cc(C)c2C#N)c(C#N)c1C | -15.8% | – | 116 nM [falling, full curve, poor fit]
CN1C(=O)c2ccc(C(=O)NCc3ccc4c(c3)OCO4)cc2C1=O | 35.8% | 18400 nM [rising, single point] | 20600 nM [rising, single point]
CN(C)S(=O)(=O)c1cccc(NC(=O)CC23CC4CC(CC(C4)C2)C3)c1 | -28.1% | – | –
CCCC(=O)Nc1nc2c(c(=O)[nH]1)CCCC2 | -7.24% | 3260 nM [falling, full curve, poor fit] | 1300 nM [falling, partial curve, poor fit]
COc1ccc2nc(N3CCN(C(=O)C4COc5ccccc5O4)CC3)sc2c1 (configuration not stated) | 61.8% | – | 29100 nM [rising, single point]
CCSc1nc(N)c2c3c(sc2n1)CCC3 | -6.39% | 1460 nM [rising, full curve, poor fit] | –
CCCCC[C@H]1CN(C2CCCCC2)C(=O)[C@@H]1CC(=O)NCc1ccccc1 | – | 18400 nM [falling, partial curve, poor fit] | –
COCCN=c1scc(-c2cccs2)n1/N=C(\C)c1ccco1 | 1.78% | – | –
O=C(CCCN1C(=O)NC2(CCCC2)C1=O)Nc1ccc(F)cc1 | -33.4% | 9200 nM [falling, partial curve] | 2590 nM [falling, full curve]
COc1cc(/C=N/NC(=O)c2ccccc2NS(=O)(=O)c2cccs2)ccc1O | 5.78% | 920 nM [rising, partial curve] | –

SMILES | cell number change | AC50 [1] | AC50 [2]
COC(=O)CN1C(=O)N(c2ccccc2)C(N(O)C(=O)Nc2ccccc2)C1(C)C (configuration not stated) | -5.02% | – | –
Cc1ccc2nc(-c3ccccc3)nc(SC(C)C(=O)NCc3cccs3)c2c1 (configuration not stated) | -30.2% | 731 nM [falling, full curve] | 731 nM [falling, full curve]
CCc1cccc(NC(=O)CCS(=O)(=O)c2ccc3c(c2)NC(=O)CO3)c1 | -22.1% | 4110 nM [falling, full curve] | –
O=C(Nc1ccc(Cl)c(Cl)c1)C1CC(=O)N(c2ccc(Br)cc2)C1 (configuration not stated) | -50.7% | 18400 nM [falling, single point] | 20600 nM [falling, single point]
O=C(CCC(=O)c1cccs1)NCc1ccncc1 | 9.9% | 130 nM [rising, full curve, poor fit] | –
COCCN(C(=O)CSc1nnc(-c2ccc(C(C)(C)C)cc2)n1N)c1c(N)n(CC(C)C)c(=O)[nH]c1=O | -79.1% | – | 23100 nM [falling, partial curve]
COc1ccc(NC(=O)CSc2nnc(C3CCCCC3)n2N)cc1OC | 17.3% | – | –
CCOc1ccc(/C(O)=C2/C(=O)C(=O)N(c3ncccn3)C2c2ccc(Cl)cc2)cc1 (configuration not stated) | -26.2% | 10300 nM [falling, partial curve] | –
CCCNC(=O)CCc1c(C)nc2c(c(C)nn2-c2ccccc2)c1C | 26.8% | 13000 nM [rising, partial curve, poor fit] | –
N#CC1=C(N)Oc2n[nH]c(-c3ccc(F)cc3)c2C1c1cccc(OC(=O)N2CCOCC2)c1 (configuration not stated) | 0.388% | – | –
CCN1CCN(C(=O)c2cc(=O)c3cc(C)ccc3o2)CC1 | -14.4% | – | –
CCCCc1nc2cc(C(=O)N3CCCCC3COC)ccc2o1 (configuration not stated) | 5.45% | 6510 nM [falling, single point] | –
COc1cccc(NC(=O)Cn2nc(Cc3cccnc3)c3ccccc3c2=O)c1 | -8.24% | – | 164 nM [rising, full curve]
COc1cc2c(cc1OC)C1=C(C#N)COCN1CC2 | 6.89% | 1840 nM [rising, single point] | –
CCOc1ccc(NC(=O)CSc2nnc(Cc3ccccc3)c(=O)n2N)cc1 | – | 2590 nM [falling, full curve, poor fit] | –
Cc1ccc(OCCn2nc3ccccc3n2)c(C)c1 | – | 3260 nM [rising, single point] | –
S=c1[nH]nc(-c2cccnc2)n1/N=C/C(Cl)=C\c1ccccc1 | -25.2% | – | 4.61 nM [falling, full curve, poor fit]
CC(C)C(C(=O)Nc1ccc2c(c1)OCCO2)N1C(=O)c2ccccc2C1=O (configuration not stated) | -78.4% | – | 29100 nM [falling, single point]
COC(=O)c1ccc(NC(=O)CSCc2ccc(C)cc2)cc1 | -6.19% | 5170 nM [falling, single point] | 4.61 nM [falling, full curve, poor fit]

Quoted from the listing:
Value of COc1cc2c(cc1OC)C1=C(C#N)COCN1CC2 under AC50 [1]: 1840 nM [rising, single point]
Value of CCCCc1nc2cc(C(=O)N3CCCCC3COC)ccc2o1 (configuration not stated) under cell number change: 5.45%

3 of the compounds above, comma-delimited.
SMILES,cell number change,AC50 [1],AC50 [2]
O=C1C=C(N2CCCCCC2)C(=O)N1c1ccc(Cl)cc1,23%,"13 nM [rising, full curve, poor fit]",–
CC1CCN(S(=O)(=O)c2ccc(N=NC3=C(O)CC(C)(C)CC3=O)cc2)CC1,-3.21%,"6510 nM [rising, single point]",–
CCCn1c(SCC(=O)O)nc2ccccc21,126%,"259 nM [falling, partial curve, poor fit]","18400 nM [rising, single point]"
